Laboratory results: PubChem BioAssay AID2685 (National Center for Advancing Translational Sciences (NCATS), 2010)
Some of the results follow. Further columns of the screen follow, without active or inactive calls. Compounds called inactive in the main read-out are mostly missing here. Words in brackets tell the shape of the fitted curve; partial curves, single points and poor fits give uncertain potencies.

Test: qHTS Assay for Lipid Storage Modulators in Drosophila S3 Cells;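 for cell number change: cells counted by Cell Tracker Red CMTPX staining in the red channel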
Settings: BODIPY lipid droplet fluorescence, 18-24 h; for cell number change: measured here: cell count max response, cells fed with added oleic acid
Procedure, shortened: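 Drosophila S3 cells got compounds at several concentrations plus oleic acid (400 uM solution). Laser-scanning cytometry with 488 nm excitation read lipid droplets at 500-530 nm and cells at 575-640 nm. Percent activity was relative to 20 uM Triacsin C.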

[1] = measured here: lipid fluorescence (Fed channel) AC50, cells fed with added oleic acid
[2] = measured here: cell number channel AC50, cells fed with added oleic acid

Cc1cc(Cl)ccc1OCC(=O)N1CCN(C)CC1
cell number change: 9.18%

CCN(CC)CCCC(C)N=C(c1ccccc1)c1c(O)n(C)c(=O)n(C)c1=O (stereo not drawn)
cell number change: -1.89% | AC50 [1]: 0.00651 µM [falling, full curve, poor fit]

O=C(c1cc2c(s1)-c1ccccc1OC2)N1CCC2(CC1)OCCO2
AC50 [1]: 6.51 µM [rising, single point]

O=C1CN(O)C(c2ccccc2)=c2cc(Br)ccc2=N1
cell number change: 1.35%

C=CCn1c(O)c(N=Nc2c(C)n(C)n(-c3ccccc3)c2=O)c(=O)[nH]c1=S
AC50 [1]: 11.6 µM [falling, partial curve, poor fit]

Cc1cccc(C(=O)N(NC(=O)Oc2ccccc2)C(C)(C)C)c1
AC50 [2]: 6.51 µM [rising, single point]

COc1cccc(N2C(=O)/C(=C/c3ccc(C)o3)C(=O)NC2=S)c1
cell number change: -31% | AC50 [2]: 23.1 µM [falling, single point] | AC50 [1]: 6.51 µM [rising, partial curve, poor fit]

CCn1c(C)c(C(=O)NCCc2ccccc2)c2cc(OC)ccc21
cell number change: 20.6%

CC1CN(c2ccc([N+](=O)[O-])c3cccnc23)CC(C)N1 (stereo not drawn)
cell number change: 169%

O=C(c1ccc2nc(-c3ccco3)c(-c3ccco3)nc2c1)N1CCC2(CC1)OCCO2
AC50 [2]: 6.51 µM [rising, single point]

Cc1cccc(C)c1OP(N)(=O)Oc1c(C)cccc1C
cell number change: 1.99%

Nc1nonc1OCCCCOc1nonc1N
cell number change: -9.72% | AC50 [1]: 0.651 µM [falling, full curve, poor fit]

Cc1cccc(-n2c(O)c(/C=C/C=Nc3ccccc3)c(=O)[nH]c2=O)c1
AC50 [1]: 0.58 µM [falling, full curve]

CC1=C(C(=O)Nc2ccccc2)SCCO1
AC50 [1]: 0.00461 µM [falling, full curve, poor fit]

N=c1ccccn1Cc1ccccc1
cell number change: -36.5% | AC50 [2]: 2.31 µM [falling, partial curve] | AC50 [1]: 4.11 µM [falling, full curve]

CN1CCC(=O)N(CCN=[N+]=[N-])CC1
cell number change: 31.1% | AC50 [2]: 16.4 µM [rising, partial curve, poor fit]

Cc1ccc2occ(CN3CC4CC(C3)c3cccc(=O)n3C4)c(=O)c2c1 (stereo not drawn)
cell number change: -0.209% | AC50 [1]: 18.4 µM [rising, single point]

CC(C)[C@H](NC(=O)N1C[C@H]2C[C@@H](C1)c1cccc(=O)n1C2)C(=O)Nc1ccccc1F
cell number change: -18.9% | AC50 [1]: 0.366 µM [falling, full curve, poor fit]

O=P(Nc1ccccc1)(Nc1ccccc1)Oc1ccc(Cl)cc1
cell number change: -0.811%
